For 17 molecules, cell number change and AC50 results are on record in PubChem BioAssay AID2685 (National Center for Advancing Translational Sciences (NCATS), 2010).

The nature of this assay: qHTS Assay for Lipid Storage Modulators in Drosophila S3 Cells.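 As to cell number change: cells counted by Cell Tracker Red CMTPX staining in the red channel.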 The note with it: BODIPY lipid droplet fluorescence, 18-24 h; for cell number change: measured here: cell count max response, cells fed with added oleic acid. In outline:
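Drosophila S3 cells loaded with oleic acid (400 uM, as added) and compounds at several concentrations; lipid droplets imaged by 488-nm laser-scanning cytometry, 500–530 nm intensity and object ratio to cell channel. Percent activity normalized to 20 uM Triacsin C.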
(qHTS replaces the single test concentration by a dilution series.)

Where [1] appears, read: measured here: cell number channel AC50, cells fed with added oleic acid.
The mark [2] stands for this setting: measured here: lipid fluorescence (Fed channel) AC50, cells fed with added oleic acid.

Structures are written as SMILES. “And” between values parts separate entries of the source, which are not always exact repeats. Equal entries are not always repeated. The list shows a part of the results. Further columns of the screen follow, without active or inactive calls. Most of these compounds were active or inconclusive in the main read-out, so they are no random draw. The note in brackets gives the kind of curve behind each potency; many fits are weak.

As a reminder, the AC50 is the midpoint of the concentration-response curve, whichever way the signal moves. Low values mean greater potency, high ones weaker potency. With `CC(C)c1nnc(SCC(=O)N2CCc3ccccc32)n1N`, the cell number change is -29.5%. Moreover, the AC50 under setting [1] was 0.00461 µM [falling, full curve, poor fit].
On to `CCOC(=O)C1CCCN(Cc2ccc(OCc3ccccc3)c(OC)c2)C1` (configuration not stated), for which the cell number change was -16.8%. The AC50 under setting [2] is 6.51 µM [rising, single point].
With `CC(C)Oc1ccc(C(=O)Nc2ccc(N3CCCC3)cc2)cc1`, the cell number change came out at 49%. For the same molecule, the AC50 under setting [1] was 29.1 µM [rising, single point].
For the molecule `Cc1ccc(OCc2nc(-c3ccccn3)no2)cc1`, the AC50 under setting [1] was 6.51 µM [rising, single point].
For the molecule `COc1ccc2cc3[n+](cc2c1OC)CCc1cc2c(cc1-3)OCO2`, the cell number change is 11.1% and 3.89%. In addition, the half-maximal activity concentration (AC50) under setting [1] was 0.231 µM [rising, partial curve]. In addition, under setting [2], the AC50 is 58 nM [rising, full curve] and 291 nM [rising, full curve].
In the case of `CCOC(=O)C1C(=O)C=C(Nc2ccccc2F)CC1c1ccccc1` (configuration not stated), the cell number change stood at 17.3%. In addition, the AC50 under setting [2] was 32.6 µM [rising, partial curve].
Regarding `CNC(=O)NC(=O)COc1ccc2oc3c(c2c1)CCCC3`, the AC50 under setting [2] was 0.82 µM [falling, full curve].
For the molecule `CCn1cc(C(=O)NCc2ccc3c(c2)OCO3)c(=O)c2ccc(C)nc21`, the cell number change was determined as 11.4%. The AC50 under setting [2] is 0.92 µM [rising, partial curve].
Take `Cc1ccc(C(=O)Nc2c(C)n(C)n(-c3ccccc3)c2=O)cc1S(=O)(=O)N1CCOCC1`: the cell number change was -4.22%. Besides, the AC50 under setting [2] was 18.4 µM [falling, single point].
For the molecule `Oc1ccc(Cl)cc1CNc1ccccn1`, the cell number change came to 10.5%. The AC50 under setting [2] is 29.1 µM [rising, single point].
For the molecule `O=C(Nc1ccc(Cl)c(S(=O)(=O)N2CCCCC2)c1)c1ccncc1`, the cell number change turned out to be 32.5%. For the same molecule, the AC50 under setting [1] is 8.2 µM [rising, partial curve, poor fit].
Regarding `COc1cc(C(=O)Nc2ccc(-c3nc4cc(C)ccc4o3)c(O)c2)cc(OC)c1OC`, the cell number change turned out to be 6.46%. Also, the AC50 under setting [2] was 23.1 µM [falling, partial curve, poor fit].
Regarding `C=C(C)CSc1nc2ccccc2[nH]1`, the cell number change was -4.49%. Under setting [2], the AC50 was 14.6 µM [rising, single point].
In the case of `CCOC(=O)c1c(NC(C)=O)sc2c(OC)c(Br)ccc12`, the cell number change was -19.8%. Moreover, the AC50 under setting [2] is 3.66 µM [rising, partial curve].
Regarding `CCCCn1c(=O)[nH]c(=O)c2c(C(=O)OCC)cc(-c3cccs3)nc21`, the AC50 under setting [1] is 0.651 µM [rising, single point].
As to `CCc1ccc(C(C)NC(=O)c2ncn[nH]2)cc1` (configuration not stated), the cell number change was -2.1%. Further, the AC50 under setting [2] was 3.26 µM [rising, partial curve].
Turning to `CC(C)C(OC(=O)c1cccs1)C(=O)NCc1ccc2c(c1)OCO2` (configuration not stated), the cell number change was -22.6%. The AC50 under setting [2] was 29.1 µM [falling, single point].
